# Where two headings read alike, the source gives them in different places.
# Columns and labels:
# [1] = SARA analysis of bitumen samples extracted by each solvent
# [2] = Oil recovery from formation core by brine displacement followed by DMS displacement; settings: after brine displacement
# Method: Incremental recovery of oil from a formation core using an oil recovery formulation consisting of dimethyl sulfide following oil recovery from the core by water-flooding was measured to evaluate the effectiveness of DMS as a tertiary oil recovery agent.
# Two 5.02 cm long Berea sandstone cores with a core diameter of 3.78 cm and a permeability between 925 and 1325 mD were saturated with a brine having a composition as set forth in Table 7.
# After saturation of the cores with brine, the brine was displaced by a Middle Eastern Asphaltic crude oil having the characteristics as set forth above in Table 3 to saturate the cores with oil.
# Oil was recovered from each oil saturated core by the addition of brine to the core under pressure and by subsequent addition of DMS to the core under pressure. Each core was treated as follows to determine the amount of oil recovered from the core by addition of brine followed by addition of DMS. Oil was initially displaced from the core by addition of brine to the core under pressure. A confining pressure of 1 MPa was applied to the core during addition of the brine, and the flow rate of brine to the core was set at 0.05 ml/min. The core was maintained at a temperature of 50° C. during displacement of oil from the core with brine. Oil was produced and collected from the core during the displacement of oil from the core with brine until no further oil production was observed (24 hours). After no further oil was displaced from the core by the brine, oil was displaced from the core by addition of DMS to the core under pressure. DMS was added to the core at a flow rate of 0.05 ml/min for a period of 32 hours for the first core and for a period of 15 hours for the second core. Oil displaced from the each core during the addition of DMS to the core was collected separately from the oil displaced by the addition of brine to the core.
# The oil samples collected from each core by brine displacement and by DMS displacement were isolated from water by extraction with dichloromethane, and the separated organic layer was dried over sodium sulfate. After evaporation of volatiles from the separated, dried organic layer of each oil sample, the amount of oil displaced by brine addition to a core and the amount of oil displaced by DMS addition to the core were weighed. Volatiles were also evaporated from a sample of the Middle Eastern asphaltic oil to be able to correct for loss of light-end compounds during evaporation.
# [3] = Core 1, 0.05 ml/min for 32 hours
# [4] = Core 2, 0.05 ml/min for 15 hours
Compound,Aromatics in extracted bitumen ([1]; bitumen extracted at 30° C.) [Normalized Weight Percent],Asphaltenes in extracted bitumen ([1]; bitumen extracted at 30° C.) [Normalized Weight Percent],Resins in extracted bitumen ([1]; bitumen extracted at 30° C.) [Normalized Weight Percent],Saturates in extracted bitumen ([1]; bitumen extracted at 30° C.) [Normalized Weight Percent],Aromatics in extracted bitumen [1] [Normalized Weight Percent],Asphaltenes in extracted bitumen [1] [Normalized Weight Percent],Resins in extracted bitumen [1] [Normalized Weight Percent],"Oil produced DMS displacement [2, 3] [mL]","Oil produced DMS displacement (of % oil initially in core) [2, 3] [%]","Oil produced DMS displacement [2, 4] [mL]","Oil produced DMS displacement (of % oil initially in core) [2, 4] [%]",Extraction of asphaltenes from oil sands / miscibility with asphaltenes ([1]; SARA analysis)
"S=C=S [Carbon Disulfide, carbon disulfide]",41.89,13.85,25.49,18.77,–,–,–,–,–,–,–,–
"ClC(Cl)Cl [Chloroform, chloroform]",–,–,–,15.64,43.56,14.86,25.94,–,–,–,–,–
"CSC [Dimethyl Sulfide, dimethyl sulfide]",47.07,13.19,24.25,15.49,–,–,–,3.5,32,3.3,30,excellent miscibility properties
"C1CCOC1 [Tetrahydrofuran, tetrahydrofuran]",45.24,14.27,24.38,16.11,–,–,–,–,–,–,–,–
"Cc1ccccc1C [o-Xylene, o-xylene]",46.39,13.96,22.28,17.37,–,–,–,–,–,–,–,–
